Measurements as given in PubChem BioAssay AID651550 (National Center for Advancing Translational Sciences (NCATS), 2012).
In all, about 360,000 compounds went through this assay and about 1,100 (0.31%) were called active. Inconclusive results, whose numbers are uncertain, are shown with a selection of clear calls. No stated cut-off is given here; in the data, active means activity change below about -80%; inconclusive means mostly about -51% to -80%; inactive means weaker than that.

Target: RAC-alpha serine/threonine-protein kinase (Homo sapiens) (UniProt P31749)
Assay: HTS Assay for Inhibitors of Akt Phophorylation: Primary Screen
Settings: Neuro2A IGF-stimulated pAkt S473 HTRF, 20 min; at 50 µM, active compounds read low
How it was run: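 Neuro2A cells (4,500/well, DMEM with 0.5% FBS) were treated with compound at a single 50 µM final concentration, stimulated with 6 nM IGF for 20 min at 37 °C, and lysed. Phospho-Akt Ser473 was read by HTRF as 665/615 ratio ×10^4.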
On the % scale 0 is the no-effect control and ±100 the full control effect.

SMILES | activity change
COC(=O)CNc1c(-c2ccccc2)nc2ccc(Br)cn12 | inconclusive: -74.2%
Cc1nn(C)cc1/C=C1\SC(=S)NC1=O | inconclusive: -51.4%
C[C@H](CO)N1C[C@H](C)[C@H](CN(C)S(=O)(=O)c2ccc(F)cc2)Oc2ncc(Br)cc2C1=O | inactive
COC(=O)[C@H](C)NC(=O)NCc1ccc(F)cc1 | active: -81.8%
O=C(CSc1nnc(NC(=O)c2ccco2)s1)Nc1ccccc1Cl | inactive
Cc1cc(C)c2nc(SCC(=O)Nc3ccccc3N3CCOCC3)c(C#N)cc2c1 | inconclusive: -56.3%
N#CCCn1c(-c2nonc2NC(=O)c2ccccc2Cl)nc2ccccc21 | inconclusive: -75.8%
O=C1CCCc2nn(-c3ccccc3)nc21 | inconclusive: -56.8%
O=C1CCN(C(=O)Nc2cccc(Cl)c2)N1 | active: -120%
N#Cc1c2ccc(O)cc2n2ccccc12 | inactive
CCc1nc2c(sc3nc4c(cc32)COC(C)(C)C4)c(=O)n1Cc1ccccc1 | inconclusive: -79.1%
Cc1ccc(N(Cc2ccccc2)C(=O)c2cc(S(=O)(=O)N3CCOCC3)ccc2F)cc1 | inactive
CCCCCCC(=O)Nc1nnc(CC)s1 | active: -123%
CCOC(=O)c1c(C)[nH]c(C(=O)OCC(=O)NC2CCS(=O)(=O)C2)c1C (configuration not stated) | active: -112%
COc1ccc(C(=O)CSc2cc(C)nc(SCC(=O)c3ccc(C)cc3)n2)cc1 | inconclusive: -51.4%
Cc1cccc2c1N1C(=O)c3c(C(=O)O)cccc3C1CC2C (configuration not stated) | inconclusive: -50.7%
O=C(C1=C(O)C(=O)N(Cc2ccccc2)C1c1ccco1)c1ccco1 (configuration not stated) | inconclusive: -56.5%
Cc1ccc(NC(=O)CN(C)c2ccc(S(=O)(=O)N3CCN(C)CC3)cn2)cc1 | active: -102%
O=C(CSc1nc2[nH]ncc2c(=O)n1-c1ccccc1)N1CCCc2ccccc21 | inconclusive: -68.7%
CC(Cc1cccs1)NC(=O)Nc1ccc(Cl)c(Cl)c1 (configuration not stated) | active: -103%
CC1CCCC(n2c(=S)[nH]c3ccccc3c2=O)C1C (configuration not stated) | inconclusive: -56.2%

SMILES | activity change
CN(C)S(=O)(=O)c1ccc(N2CCCC2)c(C(=O)NCc2cccc(C(F)(F)F)c2)c1 | inconclusive: -49.9%
Cc1cccc(NC(=O)CSC(N)=O)c1C | active: -113%
COc1ccccc1-c1cc(C(=O)Nc2ccc(F)cc2F)no1 | inconclusive: -64.2%
CCOc1ccc(CCNS(=O)(=O)c2cnc[nH]2)cc1OCC | active: -132%
CCCOC(=O)c1sc2nc3c(cc2c1N)C(=O)CCC3 | inconclusive: -53.2%
CN1CCCC1CCOC(C)(c1ccccc1)c1ccc(Cl)cc1 (configuration not stated) | inactive
Cc1ccc(NC(=O)Cn2nc(C)c3ccccc3c2=O)cc1 | inactive: -8.39%
COc1ccc(C(=O)CSc2nc(N)nc(SC)c2C#N)cc1 | inconclusive: -61.1%
Cc1cc2ccccn2c1C(=O)c1ccc(Cl)cc1 | inconclusive: -55%
Cc1ccc(CNC(=O)COc2cc(O)c3c(c2)OC(C)(C)CC3=O)cc1 | inactive
Cc1cccc2cc(CN(Cc3nnnn3C3CCCCC3)C3CCCC3)c3nnnn3c12 | active: -116%
O=C(Nc1ccc2c(c1)OCCO2)C1CCCN1S(=O)(=O)c1ccc(Cl)cc1 (configuration not stated) | active: -111%
O=C(c1cc(-c2ccccc2)nc2ccccc12)N1N=C(C(F)F)CC1(O)C(F)F (configuration not stated) | inconclusive: -61.4%
COc1ccc(Cn2c(-c3ccco3)nc3oc4ccccc4c(=O)c3c2=O)cc1 | inconclusive: -56.2%
Cc1cc(NC(=O)c2ccc(F)cc2F)n(-c2nc3ccccc3[nH]2)n1 | inconclusive: -58.8%
CCOCc1nnc(NC(=O)c2ccco2)s1 | active: -123%
Cc1[nH]ccc(=O)c1OCc1c(Cl)cccc1Cl | active: -114%
COc1ccc2sc3c(=O)[nH]c4ccccc4c3c2c1 | inconclusive: -72.7%
CCOc1ccc(CCNC(=O)C2CCC(=O)N2CCc2ccccc2)cc1OCC (configuration not stated) | active: -82%
CCOC(=O)Cc1csc(NC(=O)CSc2nnc(-c3ccc(NS(=O)(=O)CC)cc3)o2)n1 | inconclusive: -64.8%
Brc1ccsc1-c1csc(-c2ccncc2)n1 | inactive

SMILES | activity change
CCCOc1ccc(CSc2nc3ccccc3[nH]2)cc1 | inconclusive: -73%
Cc1ccc(-n2ncc3c(=O)n(CC(=O)NC4CCCCC4)cnc32)cc1 | inconclusive: -76.6%
COCCCn1c(-c2ccccc2)nc2ccccc2c1=O | active: -121%
CSCCC(NS(=O)(=O)c1ccc(Cl)cc1)C(=O)OCc1cccc(Cl)c1 (configuration not stated) | inactive
O=[N+]([O-])c1ccc(/C=N/NC(=S)Nc2ccccc2)o1 | inactive
CCC(C)NCCCOc1ccc(Cl)cc1C(C)(C)C (configuration not stated) | inactive
CCOC(=O)C1=C(C)Nc2ccccc2N=C1NC(=O)c1oc2ccccc2c1COC | inactive
Cc1ccc(-c2nnn(CC(=O)NCc3ccccc3)n2)c(-n2cnnn2)c1 | inconclusive: -75.3%
Cc1cccc2cc(/C=C3\N=C(c4ccccc4)OC3=O)c(N3CCOCC3)nc12 | inconclusive: -75.8%
Clc1cccc(NCc2nnc(SCc3ccccc3)o2)c1 | inactive: -7.67%
CCOC(=O)c1ccc(-c2c(C(=O)OCC)oc3cc(O)c(CC)cc3c2=O)o1 | inconclusive: -79.2%
N#Cc1nc(Cc2cccc3ccccc23)oc1NCc1ccco1 | inconclusive: -67.8%
O/N=C1/C2C3CC4C5C3C1C5C1(OCCO1)C42 (configuration not stated) | inconclusive: -53.1%
CC(=O)OC1COC(N2CCc3cc(Br)c([N+](=O)[O-])cc32)C(OC(C)=O)C1OC(C)=O (configuration not stated) | inconclusive: -76%
CCSc1nc(N)c(C#N)c(-c2ccco2)c1C#N | inactive: -13.1%
Cc1[nH]ncc1Nc1c(C(C)C)cccc1C(C)C | inactive
COc1ccccc1NC(=O)Nc1cccc(C(=O)O)c1 | inactive
COC(=O)c1sccc1NC(=O)C12CC3CC(CC(C3)C1)C2 | inconclusive: -51.8%
CCn1c(-c2csc3c2CCC(C)C3)n[nH]c1=S (configuration not stated) | inactive
O=C(/C=C/Nc1ccc(OC(F)(F)F)cc1)C(F)(F)F | active: -127%

Some of these compounds in order of molecular weight, rising.
SMILES | activity change
COc1ccccc1NC(=O)Nc1cccc(C(=O)O)c1 | inactive
CCC(C)NCCCOc1ccc(Cl)cc1C(C)(C)C (configuration not stated) | inactive
O=C(/C=C/Nc1ccc(OC(F)(F)F)cc1)C(F)(F)F | active: -127%

Look-ups from the list.
activity change, Cc1ccc(-n2ncc3c(=O)n(CC(=O)NC4CCCCC4)cnc32)cc1 reads inconclusive: -76.6%
activity change, COC(=O)c1sccc1NC(=O)C12CC3CC(CC(C3)C1)C2 reads inconclusive: -51.8%
